Results are given in words; binding and its absence hold for the method and conditions named. Binding seen in cells or lysates may run through a third protein. Some entries that bind do so weakly or less than the wild type.
How the values were obtained:
[1] = molecular target: Hypoxia-inducible factor-1α (human (endogenous in HUH7)) (UniProt Q16665); assay: co-IP; Pierce Crosslink Magnetic IP/Co-IP Kit; 5 μg CDK5 antibody or HIF-1α antibody, mouse IgG1 as control antibody; HUH7 cells treated with 100 μM deferoxamine for six hours; both directions; n = 3
[2] = molecular target: Cyclin-dependent kinase 5 (human (endogenous in HUH7)) (UniProt Q00535); assay: as above

Substance	binding [1]	binding [2]
Cyclin-dependent kinase 5 (from UniProt Q00535 1-292) (enzyme)	binds	
Hypoxia-inducible factor-1α (from UniProt Q16665 1-826)		binds
